According to the supplement of paper PMC3334620:
Over roughly 33,000 sequences, “E-score (-0.5 to 0.5)” has its median near -0.016; the highest 2% begin near 0.3. The list shows a part of the results.

target: T1, Yer184c (UniProt P39961); experiment: PBM E-score (8-mer binding enrichment) (E-score (-0.5 to 0.5)); higher = stronger / more preferred TF binding; settings: protein concentration: 100 nM; construct: GST-full length
T1 sequence: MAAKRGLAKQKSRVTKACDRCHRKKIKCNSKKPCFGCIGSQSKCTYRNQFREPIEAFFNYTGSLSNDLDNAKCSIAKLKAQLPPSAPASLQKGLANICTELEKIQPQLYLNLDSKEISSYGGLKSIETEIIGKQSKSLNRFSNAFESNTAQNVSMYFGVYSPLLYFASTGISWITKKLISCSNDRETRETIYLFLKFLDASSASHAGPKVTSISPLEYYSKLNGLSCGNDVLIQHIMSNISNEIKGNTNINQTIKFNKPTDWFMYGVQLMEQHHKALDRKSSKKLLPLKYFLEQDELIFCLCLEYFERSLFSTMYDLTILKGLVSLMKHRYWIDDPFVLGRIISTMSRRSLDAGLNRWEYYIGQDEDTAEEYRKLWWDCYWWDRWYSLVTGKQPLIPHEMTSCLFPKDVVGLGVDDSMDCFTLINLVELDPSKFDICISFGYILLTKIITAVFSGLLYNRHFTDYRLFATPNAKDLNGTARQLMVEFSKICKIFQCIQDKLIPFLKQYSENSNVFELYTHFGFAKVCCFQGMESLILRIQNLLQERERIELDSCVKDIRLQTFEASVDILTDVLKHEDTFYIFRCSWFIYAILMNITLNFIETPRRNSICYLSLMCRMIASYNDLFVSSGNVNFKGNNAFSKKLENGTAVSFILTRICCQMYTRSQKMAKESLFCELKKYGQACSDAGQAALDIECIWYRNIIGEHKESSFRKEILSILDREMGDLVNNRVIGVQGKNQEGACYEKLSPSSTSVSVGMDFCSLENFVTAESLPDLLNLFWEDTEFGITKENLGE
Procedure, shortened: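 Bound GST-tagged yeast transcription factors, applied at about 100-200 nM to double-stranded universal all-10-mer Agilent arrays, were detected with fluorescent anti-GST. Scans were normalised with masliner. A modified Wilcoxon-Mann-Whitney statistic, the E-score, was assigned to each ungapped eight-base word pooled with its reverse complement by the Universal PBM Analysis Suite.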

Sequence | PBM E-score
CACTTCTG | -0.207
CATTTTTA | -0.121
GCTACGAC | -0.0595
AGCTGCTA | -0.0465
CACTAATC | 0.0249
CCCTTACA | -0.118
CCGAGTGC | 0.171
AATCCTGA | 0.0482
CATGTTCA | -0.288
ATCGTTCG | 0.0826
GAGCCCTA | -0.081
ATTAGTAA | 0.167
CACGAATC | 0.0178
CGTATACA | 0.094
GCGTCGAC | 0.0112
CATCCATC | -0.312
GTTCTTGA | -0.0364
CTACATTC | -0.0537
GGAAAACC | 0.0228
GCCCGTCA | -0.138
CTATTCCC | 0.0619
ATTGGGAA | -0.0191
TGCTTTAA | -0.00702
GACGTTCA | -0.198
GCGGCCCA | 0.106

Three entries from above, with each value named.
CCCTTACA
  PBM E-score: -0.118
CCGAGTGC
  PBM E-score: 0.171
AATCCTGA
  PBM E-score: 0.0482

The list goes on:

Sequence | PBM E-score
AGACCTCC | -0.328
ACGTACGC | -0.297
CAAGCATC | -0.105
GTAAGTTA | -0.00447
ATCTGGTA | -0.0155
ACAAGGAC | -0.244
CGTTATTA | 0.144
CTCGTCTC | -0.164
AGGGAATA | 0.0512
ATGCATGG | 0.103
TATATATA | 0.424
TATCCGCA | 0.293
GAGAATCA | 0.0478
ATTCCAGA | 0.0645
CATGGGGA | -0.24
GATGTCAA | -0.0419
CATGCTCC | -0.245
AGTGCGGG | -0.0197
AGAACAGA | 0.0872
CTTTTGAC | 0.00937
AGTACTAG | 0.0969
CGACCAAG | -0.197
TGGAAAAA | 0.132
CTCTTCAG | 0.01
CCTACGGA | -0.033

As a short view, part of the list above:
Sequence | PBM E-score
CATGTTCA | -0.288
ATCGTTCG | 0.0826
GAGCCCTA | -0.081

More records

Sequence | PBM E-score
GCCGTTTA | 0.149
CGTTTGTA | 0.0882
GAAGTGGC | -0.147
AGGCGCTG | -0.0666
ATGTTCAC | 0.00553
CCGACATC | 0.155
ACGTCACA | -0.0893
CAGCTAGG | -0.289
CACGTCTG | 0.0617
CGATATAG | 0.0508
CGGTGAAC | 0.0315
GGGCGACC | -0.167
GCGGAACA | 0.237
AAATACAC | 0.0314
CAACTGCA | 0.0872
CCTCAGGC | -0.189
ACCCTTAC | -0.25
CGATAAAA | 0.333
AACCTTGC | -0.177
CTTTCAAC | 0.0434
GTCGTCCA | -0.137
ACATATGA | 0.0853
AGGGTTAG | -0.213
CGGACTCC | 0.112
AAGACCGG | 0.0893

Sequence | PBM E-score
CACGATCG | -0.0228
AATGGGAC | -0.291
GTGAGCAC | -0.0931
CAGGTGCA | -0.0645
CAACATAA | 0.122
CAAATCGG | 0.247
CTTTGTTA | 0.26
CACGCTCG | -0.0162
AGCGCCCC | -0.325
ACCCGTCA | -0.22
AGTGCAAA | 0.219
ATTATGAC | 0.137
CGGGACCC | -0.0643
CTTGAGGA | -0.0309
CCGCCATC | -0.206
TATCTACA | 0.167
GAGGTAAC | 0.0143
ACAAGAAC | 0.298
GTTGATTA | 0.196
CAGCACAA | 0.0854
ACGGGGCT | -0.311
CTAATCAG | -0.00548
ATAGTCGC | -0.0857
CAACCCTA | -0.161
CGTGGCTC | -0.2

Sequence | PBM E-score
ATGTGAGA | -0.0904
ATACTGTG | -0.16
ATTACTCG | 0.239
ATCATTAC | 0.111
ACCACTCA | -0.144
CCGCATTC | 0.136
CCTCGCCC | -0.125
AAGCCAGC | -0.114
CTTCTATC | -0.0483
CCGGCCTA | 0.28
CGCGGCCA | -0.00946
GTAGCTTA | 0.0649
CATCCTCC | -0.13
AGAACTTG | 0.0365
AATGGCTG | -0.0897
ATACTCAC | -0.0138
CGTACATC | -0.231
ATGAGGGG | -0.267
GAGTAAGC | -0.122
ATAACGGC | 0.147
CTGTCGCA | -0.138
ATTGCTTA | 0.137
ACCAGAAT | -0.0372
ACACATCG | -0.136
CATAAACG | 0.134

Sequence | PBM E-score
GGCGTCAA | 0.0188
ACCCGCAT | 0.0979
ATTTTGTG | 0.257
GCCCGCCA | -0.0831
CCACAGCG | -0.0604
ATTTGCAC | 0.0198
CAGCTTAG | -0.183
GATTAGAC | -0.0387
GCACATGC | -0.0502
GGTGCTAC | -0.298
CCGGATTA | 0.352
AGCGGACC | -0.00047
CTCTACAA | -0.08
GGGTCAGA | -0.136
AGATACAA | 0.255
CCAACTGC | -0.147
AAGCGGGA | -0.0907
ACAGCGGA | 0.0362
CACCGAGA | -0.212
AACCGCAC | 0.00345
CGCCCCAG | -0.135
CCTTGATC | 0.0935
ACATGAAG | 0.00621
CATCATTA | 0.188
CACAATGG | 0.0307

Sequence | PBM E-score
TTATATAA | 0.225
GAGCATGC | -0.118
AGCATATA | 0.142
AGCGGCGG | 0.222
AAGTCCCG | -0.0144
AAATTGTC | 0.0962
ACGAGAAA | 0.159
AGCTTTGC | 0.00702
AAGTTAAT | 0.085
ACATATCC | 0.0202
GAGCCTCC | -0.206
TAGATGCA | -0.0695
ACTGTTCC | -0.0232
TGCGGAAA | 0.184
AGTCGCGG | -0.111
CACTAGAG | -0.011
ACGTTACA | -0.0262
AACAGCGG | -0.102
TCTCGAAA | 0.00993
CGGGCTAG | -0.0914
GGTGGAAC | -0.0965
ACCGATCA | 0.245
